# Results: the supplement of paper PMC12889115
# The other results are listed elsewhere or left out. Values are raw readings; no control value is given beside them.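 First-pass screen: polymyxin B was added at a level that permeabilizes the Salmonella outer membrane while sparing the inner membrane. DMSO wells, with and without polymyxin B, defined maximum growth. Because plates differed from one another, each plate's data were ranked separately and the compounds with the lowest OD600 were carried forward as hits.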
# System: Salmonella enterica serovar Typhimurium SL1344
# Experiment: bacterial growth OD600 after 18 h with compound and polymyxin B; higher = more bacterial growth (less inhibition)
# Settings: 50 µM, Mueller-Hinton broth
Compound,bacterial growth OD600 (polymyxin B 0.75 µg/mL),bacterial growth OD600 (polymyxin B 1 µg/mL)
O=C1CCN(c2ccccc2C(=O)N2CCC3(CC2)CC3C(=O)NCc2cccs2)C(=O)N1 (stereo unspecified),0.808,
CSc1ccccc1N1C(=O)CN(C(=O)C2CCCC2)CC1C (stereo unspecified),0.936,
O=C(NC1CCCCC1)C1CCC(=O)N(C2CC2)C1 (stereo unspecified),,0.896
CN(Cc1ccncn1)C(=O)C1(N2CCCCC2)Cc2ccccc2C1,0.667,
O=C(c1ccc(OC2CCN(CCc3ccccc3)CC2)cc1)N1CCN(CCO)CC1,,1.32
CC(=O)c1ccc(C(=O)N2CCCC(N3CCN(c4ccccc4C)CC3)C2)cc1 (stereo unspecified),,0.837
COc1ccccc1CN1CCCC(CN(CCN(C)C)C(=O)c2cccs2)C1 (stereo unspecified),0.849,
COC(=O)CCC(=O)N1CCCC(CCC(=O)Nc2ccc(OC)c(Cl)c2)C1 (stereo unspecified),,0.905
CC(=O)c1cc(C(=O)N2CCCC(CCc3ccc(F)cc3F)C2)[nH]n1 (stereo unspecified),0.698,
COc1cccc(NC(=O)N(C)CC2CCCN(CCc3ccccc3OC)C2)c1 (stereo unspecified),,0.974
CCOC(=O)C1(Cc2ccccc2C(F)(F)F)CCN(C(=O)Cc2nonc2C)CC1,,0.768
CCn1ccnc1CN1CCCC1C(=O)Nc1ccc(-c2cccc(F)c2)cc1 (stereo unspecified),,0.018
O=C(NCC(F)(F)F)c1coc(COc2ccccc2)n1,0.791,
Cc1ccc(C(=O)N2CCCC(N3CCN(c4ccccc4C)CC3)C2)cc1 (stereo unspecified),,0.817
CCn1ncc(CN(C)CC2CCCN(CCc3ccccc3OC)C2)c1C (stereo unspecified),,0.904
CN(C)c1ncc2c(n1)CCCC2NC(=O)CN1CCCCC1 (stereo unspecified),0.814,

# Record cards, from the list above.
# O=C(c1ccc(OC2CCN(CCc3ccccc3)CC2)cc1)N1CCN(CCO)CC1 in the list: bacterial growth OD600 (polymyxin B 1 µg/mL): 1.32
# Cc1ccc(C(=O)N2CCCC(N3CCN(c4ccccc4C)CC3)C2)cc1 (stereo unspecified) in the list: bacterial growth OD600 (polymyxin B 1 µg/mL): 0.817

# (next part)

Compound,bacterial growth OD600 (polymyxin B 0.75 µg/mL),bacterial growth OD600 (polymyxin B 1 µg/mL)
COCc1nc2cc(NC(=O)Cc3ccccc3)cc(C(=O)N3CCCC(c4ccccc4)C3)c2n1C (stereo unspecified),0.688,
Cn1ccnc1CN1CCC(C2CCN(c3ncccn3)CC2)C1 (stereo unspecified),0.795,
CCN1CCN(C2(C(=O)N3CCCCO3)Cc3ccccc3C2)CC1,0.913,
COc1cc(-c2cnnc(NCCCN3CCCC3=O)n2)cc(OC)c1OC,,1.21
CCN(CC)C(=O)C1CCN(C(=O)CC2(c3cccc(C(F)(F)F)c3)CC(=O)N(CC)C2=O)CC1 (stereo unspecified),0.77,
OC(Cc1ccccc1)c1ccc2c(c1)CN(Cc1c[nH]nc1-c1ccccc1)CCO2 (stereo unspecified),0.667,
CN(C)S(=O)(=O)NC1CC(=O)N(CC2CCCCC2)C1 (stereo unspecified),,0.874
COCCN(C(=O)c1ccc(OC2CCN(C(C)=O)CC2)c(OC)c1)C(C)C,,0.942
COc1ccccc1C(=O)Nc1ccc2c(c1)CN(C(=O)c1ccsc1)CC2,,0.657
CCOC(=O)C1(Cc2ccc(OC)cc2)CCN(C(=O)c2ccc3oc(C)cc3c2)CC1,,0.004
CCc1ccc(CN2CCC(Oc3cc(OC)ccc3C(=O)NCCOC)CC2)o1,,0.999
COC(=O)CCC(=O)N1CCC2(CCCN(Cc3cccc(F)c3F)C2)C1 (stereo unspecified),,0.888
CN(C(=O)c1cccs1)C(Cc1ccccc1F)C1CCN(Cc2cccc3cccnc23)CC1 (stereo unspecified),0.784,
O=C1CCC(CCNCc2cc3c(cc2Cl)OCO3)N1Cc1cccc(OC(F)(F)F)c1 (stereo unspecified),0.784,
CCOC(=O)C1(CC2CC2)CCN(C/C=C/c2ccccc2OC)CC1,,0.864
